Reference: patent US20230398146A1, “IMMUNE MODULATION OF MYELOID DERIVED SUPPRESSIVE CELL FUNCTION FOR CANCER TREATMENT” (SURGE Therapeutics, Inc., priority 2020, published 2023)
At least one compound was matched to its structure with a doubt left.

Test system: 4T1-Luc2 cells
Assay: Survival of mice after resection of orthotopic 4T1-Luc2 breast tumors, composition administered at the tumor resection site
Type: in vivo
Details: 10% w/w poloxamer 407 + 3% w/w 187 kDa HA with agent, 1.25 mg/mouse, at tumor resection site (day 10); vs same biomaterial without agent and vs 15% w/w poloxamer 407
Experimental: In some embodiments, an animal model of cancer can be used to identify and/or characterize composition comprising a polymeric biomaterial and a modulator of myeloid-derived suppressive cells. For example, a tumor resection is performed on a tumor-bearing mouse, and a composition described herein, e.g., composition comprising a polymeric biomaterial and a modulator of myeloid-derived suppressive cells is administered to the tumor resection site. The survival of treated subjects is then monitored. In some embodiments, a composition comprising a polymeric biomaterial and a modulator of myeloid-derived suppressive cells is considered and/or determined to be useful in accordance with the present disclosure when it is characterized, in that when tested in vivo as described in the present Example, it extends survival of a treated subject, e.g., by at least 1 week, at least 2 weeks, at least 3 weeks, at least 4 weeks, at least 2 months, at least 3 months, at least 4 months, at least 5 months, at least 6 months, or longer, as compared to that observed in a control reference (e.g., a control in which a composition comprising a polymeric biomaterial and a modulator of myeloid-derived suppressive cells is not administered. […]

Question: For C=CC(=O)N1CCC([C@@H]2CCNc3c(C(N)=O)c(-c4ccc(Oc5ccccc5)cc4)nn32)CC1 [zanubrutinib], which “survival of tumor resection mice” value is on record?
Answer: The value was “survived over a longer period of time”.
